Assay results as given in patent US20250326862A1, “Antibody or Fragment Thereof Binding Specifically to Mertk, and Anti-Tumor Agent” (Chiome Bioscience Inc., priority 2021, published 2025).
These are yes or no findings as the source states them, for the method shown. Some results given as binding are weak or reduced against the parent protein; the word gives no strength.

T1: human MerTK (R&D Systems) (human) (UniProt Q12866)
T1 sequence (looked up): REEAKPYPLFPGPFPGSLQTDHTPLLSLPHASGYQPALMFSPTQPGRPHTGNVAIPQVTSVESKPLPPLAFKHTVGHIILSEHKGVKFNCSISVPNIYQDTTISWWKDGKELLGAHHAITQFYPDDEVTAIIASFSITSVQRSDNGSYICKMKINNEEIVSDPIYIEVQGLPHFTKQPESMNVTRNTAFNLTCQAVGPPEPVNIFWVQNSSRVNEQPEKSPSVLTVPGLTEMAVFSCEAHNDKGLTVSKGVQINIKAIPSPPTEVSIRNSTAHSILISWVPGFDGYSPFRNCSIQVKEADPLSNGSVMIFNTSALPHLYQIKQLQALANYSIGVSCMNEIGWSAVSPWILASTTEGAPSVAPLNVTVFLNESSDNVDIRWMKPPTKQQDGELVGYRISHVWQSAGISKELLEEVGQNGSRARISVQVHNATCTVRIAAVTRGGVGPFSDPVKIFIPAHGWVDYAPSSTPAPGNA


Legend:
[1] = target: T1, human MerTK (R&D Systems) (human); test: ELISA for antigen binding activity, human MerTK; chimeric reference antibody
[2] = target: cynomolgus MerTKECD-hFc (cynomolgus monkey); test: ELISA, antigen immobilised at 5 ug/ml, HRP-labelled secondary antibody
[3] = target: T1, human MerTK (R&D Systems) (human); test: ELISA for antigen binding activity, human MerTK

binding [3] | Binder | further results
 | m20A77_hIgG1LALA (antibody, V domains shown) VH: QVQLQQPGTELVKPGASVKLSCRASGNTFTSYWMHWVKQRPGQGLEWIGNINPSSGGTNYNEKFKSKATLTVDKSSSTAYMQLSSLTSEDSAVYYCARLNYYGFDGFAFWGQGTLVTVSA VL: DIKMTQSPSSMYASLGERVTITCKASQDINSYLSWFQQKPGKSPKTLIYRANRLVSGVPSRFSGSGSGQDYSLTISSLEYEDMGIYYCLQYDEFPFTFGSGTKLEIK | binding [1]: binds
 | m20A77_mIgG1 (antibody, V domains shown, CDR-modified variant of 20A77, made recombinantly with mouse IgG1 heavy chain and kappa light chain constant regions) VH: QVQLQQPGTELVKPGASVKLSCRASGNTFTSYWMHWVKQRPGQGLEWIGNINPSSGGTNYNEKFKSKATLTVDKSSSTAYMQLSSLTSEDSAVYYCARLNYYGFDGFAFWGQGTLVTVSA VL: DIKMTQSPSSMYASLGERVTITCKASQDINSYLSWFQQKPGKSPKTLIYRANRLVSGVPSRFSGSGSGQDYSLTISSLEYEDMGIYYCLQYDEFPFTFGSGTKLEIK | binding [2]: binds
binds | hz24A1_hIgG1LALA (antibody, V domains shown) VH: EVQLVESGGGLVQPGGSLRLSCAASGFTFNVYDMHWVRQAPGKGLEWVARIRSKSSNYATNYADSVKDRFTISRDDAKNSLYLQMNSLRAEDTAVYYCVRDGSHYYYALDYWGQGTTVTVSS VL: DIQMTQSPSSLSASVGDRVTITCRASQDINNYLNWYQQKPGKAPKLLIYYSSRLHSGVPSRFSGSGSGTDYTLTISSLQPEDFATYYCQQGKMFPWTFGGGTKVEIK | 
binds | hz20A77_hIgG1LALA (antibody, V domains shown) VH: QVQLVQSGAEVKKPGSSVKVSCKASGNTFTSYWMHWVRQAPGQGLEWIGNINPSSGGTNYNEKFKSRVTITVDKSTSTAYMELSSLRSEDTAVYYCARLNYYGFDGFAFWGQGTLVTVSS VL: DIQMTQSPSSLSASVGDRVTITCKASQDINSYLSWFQQKPGKAPKTLIYRANRLVSGVPSRFSGSGSGTDYTLTISSLQPEDFATYYCLQYDEFPFTFGGGTKVEIK | 
